In PubChem BioAssay AID2551 (National Center for Advancing Translational Sciences (NCATS), 2010):
Among all 310,000 compounds or so, about 17,000 (5.5%) were called active. Inconclusive means that the source gave no clear call. Such entries were picked first, then a sample of the others. Calls follow the shape of the dose curve; as a rule, active = well fitted inhibition curve with a large enough effect; inconclusive = small, poorly fitted or top-dose-only effect, or effect the other way; inactive = no such curve, though single readings can be large or run the other way. Potencies of inconclusive entries are doubtful fits and often do not repeat.

Amino acid sequences for entries named in this document (tags omitted). A change or cut given only in a name is not applied to a line headed by its entry.
UniProt P51450: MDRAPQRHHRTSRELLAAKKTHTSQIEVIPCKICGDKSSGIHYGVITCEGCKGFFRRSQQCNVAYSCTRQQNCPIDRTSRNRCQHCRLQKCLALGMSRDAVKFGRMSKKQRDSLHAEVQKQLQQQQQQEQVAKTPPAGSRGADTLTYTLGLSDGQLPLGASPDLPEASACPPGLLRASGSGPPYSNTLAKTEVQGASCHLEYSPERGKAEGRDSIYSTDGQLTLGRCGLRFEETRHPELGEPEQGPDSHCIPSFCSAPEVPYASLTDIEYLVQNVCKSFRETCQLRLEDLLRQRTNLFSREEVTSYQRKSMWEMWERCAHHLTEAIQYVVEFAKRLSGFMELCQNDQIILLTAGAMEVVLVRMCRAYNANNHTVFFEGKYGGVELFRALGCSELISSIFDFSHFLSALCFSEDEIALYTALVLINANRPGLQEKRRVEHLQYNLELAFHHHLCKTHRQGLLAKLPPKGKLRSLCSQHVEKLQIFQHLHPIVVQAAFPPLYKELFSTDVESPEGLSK

The compounds below were run against Nuclear receptor ROR-gamma (Mus musculus) (UniProt P51450) (assay: qHTS for inhibitors of ROR gamma transcriptional activity). Conditions: Drosophila S2 Gal4-RORgamma UAS-luciferase reporter, 20 h; series mostly up to 53.6 µM.
Outline: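 Stably transfected Drosophila Schneider cells are the test system, with ROR gamma fused to Gal4 and luciferase under UAS control; luminescence is read after 20 hr of 700 uM copper sulfate induction at ambient temperature.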
Also: nearly all actives have a fitted effect of over 60% in size.
Potency is read from the fitted curve at half-maximal effect.

Structure (SMILES) | Potency
O=C(NCc1ccco1)c1cccc(S(=O)(=O)N2CCc3ccccc32)c1 | inconclusive: 6.31 µM [activator, partial curve]
Cc1cc2c(cc1S(=O)(=O)N(C)C1CCCCC1)OCC(=O)N2 | inactive
Cc1nnc(NC2=NCCC2)o1 | inconclusive: 17.8 µM [inhibitor, single point]
C=C(C)[C@H]1CC[C@]2(CO)CC[C@]3(C)[C@@H](CC[C@H]4[C@@]5(C)CC[C@@H](O)C(C)(C)[C@@H]5CC[C@@]43C)[C@H]12 | inactive
Cc1cccc(NC(=O)C(=O)NNC(=O)c2ccc(C(C)(C)C)cc2)c1 | inconclusive: 17.8 µM [inhibitor, single point]
Cc1nnc(NC(=O)CSc2ccc([N+](=O)[O-])cn2)s1 | inconclusive: 20 µM [activator, single point]
CCCCCCSC1=C(C#N)C(=O)NC2(CCCCC2)S1 | inconclusive: 35.5 µM [inhibitor, single point]
OC[C@H]1NC[C@H](O)[C@@H](O)[C@@H]1O | inactive
COC(=O)c1[nH]c2cc(C)ccc2c1NC(=O)CN1CCN(C(=O)c2ccco2)CC1 | inactive
COc1ccc(CNC(=O)COc2ccc(F)cc2)cc1 | inactive
CC(NC(=O)C1CCCCC1)c1ccc2c(c1)OCCO2 (stereo not given) | inactive
COc1ccc(NC(=S)Nc2cc(C)[nH]n2)cc1Cl | inconclusive: 14.1 µM [inhibitor, single point]
NC(=O)c1cccc(-c2cc(Nc3ccc(OC(F)(F)F)cc3)ncn2)c1 | inconclusive: 5.62 µM [activator, partial curve]
CC(=O)OC(C(=O)NC1CCCCC1)c1ccncc1 (stereo not given) | inconclusive: 0.0045 µM [inhibitor, full curve, poor fit]
Cc1ccccc1-c1n[nH]c(=S)n1/N=C/C=C/c1ccco1 | active: 2.51 µM
O=C1C=C(O)c2cccc3cccc1c23 | inactive
O=C(c1cc(COc2ccc3ncccc3c2)on1)N1CCC[C@H]1CO | inconclusive: 31.6 µM [inhibitor, single point]
Oc1c(Br)cc(/C=N/n2c(-c3ccccc3)n[nH]c2=S)c(Br)c1O | inconclusive: 35.5 µM [inhibitor, single point]
CC1=C(C(=O)OCc2ccccc2)C(c2ccc(Cl)cc2Cl)NC(=O)N1CCCCCC(=O)O (stereo not given) | inconclusive: 31.6 µM [activator, single point]
COC(=O)C1=C(C(=O)OC)C(c2ccccc2O)c2sc(=O)[nH]c2S1 (stereo not given) | inconclusive: 35.5 µM [inhibitor, single point]

Three compounds from above, arranged by heavy-atom count, descending:
Structure (SMILES) | Potency
Oc1c(Br)cc(/C=N/n2c(-c3ccccc3)n[nH]c2=S)c(Br)c1O | inconclusive: 35.5 µM [inhibitor, single point]
Cc1ccccc1-c1n[nH]c(=S)n1/N=C/C=C/c1ccco1 | active: 2.51 µM
O=C1C=C(O)c2cccc3cccc1c23 | inactive
